The list is a part of this screen's results and no random one: it gathers some chemical classes. Other doses and runs of a compound may be missing. T/C is the treated group as % of the vehicle group. Some entries give survivors of the animals treated and no T/C: the source holds a T/C of zero for them, seemingly a mark for toxic or unscored doses. Counts of survivors are from the toxicity check (mostly the fifth day) where no day follows; animals may have died later. Schedules are NCI's codes, read here as Q, the interval in days (D) or hours (H), X, the number of doses. Some molecules as drawn cover several salts, stereoisomers or complexes of the source; a dose is that of the sample tested. For survival time, the PubChem record calls one and a half times the control and up active, and a quarter to a half above the control has no call in these data; cut-offs in other NCI protocols can differ. Some T/C values are marked as having no survivor count here; that says nothing about deaths at the dose. Some T/C values are followed by the survivors on the day toxicity was checked, most often the fifth; where neither a count nor a note follows, no animal had died by that day.
System: L1210 leukemia ip in BDF1 mice, survival T/C
Test: NCI In Vivo Anticancer Drug Screen. Data for tumor model L1210 Leukemia (intraperitoneal) in B6D2F1 (BDF1) mice
Conditions: higher T/C = longer survival

NC1=NCCN1[N+](=O)[O-]
T/C (T/C endpoint: mean survival time, dose: 25.0 mg/kg/injection, schedule: Q04DX002 (ip), vehicle: saline): 104 % of control | T/C (T/C endpoint: mean survival time, dose: 50.0 mg/kg/injection, schedule: Q01DX009 (ip), vehicle: saline): 116 % of control | T/C (T/C endpoint: mean survival time, dose: 50.0 mg/kg/injection, schedule: Q04DX002 (ip), vehicle: saline): 104 % of control | T/C (T/C endpoint: mean survival time, dose: 50.0 mg/kg/injection, schedule: Q04DX003 (ip), vehicle: saline): 101 % of control | T/C (T/C endpoint: mean survival time, dose: 100.0 mg/kg/injection, schedule: Q01DX009 (ip), vehicle: saline): 116 % of control | T/C (T/C endpoint: mean survival time, dose: 100.0 mg/kg/injection, schedule: Q04DX002 (ip), vehicle: saline): 86 % of control | T/C (T/C endpoint: mean survival time, dose: 100.0 mg/kg/injection, schedule: Q04DX003 (ip), vehicle: Klucel (hydroxypropylcellulose) (HPC)): 97 % of control | T/C (T/C endpoint: mean survival time, dose: 100.0 mg/kg/injection, schedule: Q04DX003 (ip), vehicle: saline): 98 % of control [4 of 6 alive] | T/C (T/C endpoint: mean survival time, dose: 200.0 mg/kg/injection, schedule: Q01DX009 (ip), vehicle: saline): 111 % of control [5 of 6 alive] | T/C (T/C endpoint: mean survival time, dose: 200.0 mg/kg/injection, schedule: Q04DX003 (ip), vehicle: Klucel (hydroxypropylcellulose) (HPC)): 94 % of control [5 of 6 alive] | survivor count (T/C endpoint: mean survival time, dose: 200.0 mg/kg/injection, schedule: Q04DX003 (ip), vehicle: saline): 2 of 6 | survivor count (T/C endpoint: mean survival time, dose: 400.0 mg/kg/injection, schedule: Q04DX003 (ip), vehicle: Klucel (hydroxypropylcellulose) (HPC)): 1 of 6

CP(=S)(Nc1ccccc1)Nc1ccccc1
T/C (T/C endpoint: mean survival time, dose: 100.0 mg/kg/injection, schedule: Q04DX002 (ip), vehicle: gum acacia): 108 % of control [survivor count not shown] | T/C (T/C endpoint: mean survival time, dose: 200.0 mg/kg/injection, schedule: Q04DX002 (ip), vehicle: gum acacia): 105 % of control [survivor count not shown] | T/C (T/C endpoint: mean survival time, dose: 400.0 mg/kg/injection, schedule: Q04DX002 (ip), vehicle: gum acacia): 111 % of control [survivor count not shown]

CCP(=O)(Nc1cccc(C(F)(F)F)c1)Nc1cccc(C(F)(F)F)c1
T/C (T/C endpoint: mean survival time, dose: 100.0 mg/kg/injection, schedule: Q01DX009 (ip), vehicle: Klucel (hydroxypropylcellulose) (HPC)): 96 % of control [survivor count not shown] | T/C (T/C endpoint: mean survival time, dose: 200.0 mg/kg/injection, schedule: Q01DX009 (ip), vehicle: Klucel (hydroxypropylcellulose) (HPC)): 101 % of control [survivor count not shown] | T/C (T/C endpoint: mean survival time, dose: 400.0 mg/kg/injection, schedule: Q01DX009 (ip), vehicle: Klucel (hydroxypropylcellulose) (HPC)): 91 % of control [survivor count not shown]

[N-]=[N+]=Nc1c([N+](=O)[O-])cc([N+](=O)[O-])cc1[N+](=O)[O-]
T/C (T/C endpoint: mean survival time, dose: 5.0 mg/kg/injection, schedule: Q01DX001 (ip), vehicle: saline): 100 % of control [survivor count not shown] | T/C (T/C endpoint: mean survival time, dose: 10.0 mg/kg/injection, schedule: Q01DX001 (ip), vehicle: saline): 102 % of control [survivor count not shown] | T/C (T/C endpoint: mean survival time, dose: 20.0 mg/kg/injection, schedule: Q01DX001 (ip), vehicle: saline): 96 % of control [survivor count not shown] | T/C (T/C endpoint: mean survival time, dose: 40.0 mg/kg/injection, schedule: Q01DX001 (ip), vehicle: saline): 100 % of control [survivor count not shown] | T/C (T/C endpoint: mean survival time, dose: 80.0 mg/kg/injection, schedule: Q01DX001 (ip), vehicle: saline): 96 % of control [survivor count not shown]

CC(Cl)CN(CC(C)Cl)C(=O)OCC(N)C(=O)O (stereo unspecified)
T/C (T/C endpoint: mean survival time, dose: 12.5 mg/kg/injection, schedule: Q01DX009 (ip), vehicle: water): 98 % of control | T/C (T/C endpoint: mean survival time, dose: 25.0 mg/kg/injection, schedule: Q01DX001 (ip), vehicle: water): 102 % of control | T/C (T/C endpoint: mean survival time, dose: 25.0 mg/kg/injection, schedule: Q01DX009 (ip), vehicle: water): 98 % of control | T/C (T/C endpoint: mean survival time, dose: 50.0 mg/kg/injection, schedule: Q01DX001 (ip), vehicle: water): 102 % of control | T/C (T/C endpoint: mean survival time, dose: 50.0 mg/kg/injection, schedule: Q01DX009 (ip), vehicle: water): 98 % of control | T/C (T/C endpoint: mean survival time, dose: 100.0 mg/kg/injection, schedule: Q01DX001 (ip), vehicle: water): 95 % of control | T/C (T/C endpoint: mean survival time, dose: 100.0 mg/kg/injection, schedule: Q01DX009 (ip), vehicle: water): 100 % of control | T/C (T/C endpoint: mean survival time, dose: 200.0 mg/kg/injection, schedule: Q01DX001 (ip), vehicle: water): 98 % of control | T/C (T/C endpoint: mean survival time, dose: 200.0 mg/kg/injection, schedule: Q01DX009 (ip), vehicle: water): 101 % of control | survivor count (T/C endpoint: mean survival time, dose: 400.0 mg/kg/injection, schedule: Q01DX001 (ip), vehicle: water): 1 of 10 | survivor count (T/C endpoint: mean survival time, dose: 400.0 mg/kg/injection, schedule: Q01DX009 (ip), vehicle: water): 2 of 10 | T/C (T/C endpoint: median survival time, dose: 12.5 mg/kg/injection, schedule: Q01DX009 (ip), vehicle: water): 100 % of control | T/C (T/C endpoint: median survival time, dose: 25.0 mg/kg/injection, schedule: Q01DX001 (ip), vehicle: water): 90 % of control | T/C (T/C endpoint: median survival time, dose: 25.0 mg/kg/injection, schedule: Q01DX009 (ip), vehicle: water): 100 % of control | T/C (T/C endpoint: median survival time, dose: 25.0 mg/kg/injection, schedule: Q04DX003 (ip), vehicle: water): 95 % of control | T/C (T/C endpoint: median survival time, dose: 50.0 mg/kg/injection, schedule: Q01DX001 (ip), vehicle: water): 90 % of control | T/C (T/C endpoint: median survival time, dose: 50.0 mg/kg/injection, schedule: Q01DX009 (ip), vehicle: water, evaluated on day 15): 100 % of control | T/C (T/C endpoint: median survival time, dose: 50.0 mg/kg/injection, schedule: Q01DX009 (ip), vehicle: water, evaluated on day 16): 90 % of control | T/C (T/C endpoint: median survival time, dose: 50.0 mg/kg/injection, schedule: Q04DX003 (ip), vehicle: water, evaluated on day 15): 100 % of control | T/C (T/C endpoint: median survival time, dose: 50.0 mg/kg/injection, schedule: Q04DX003 (ip), vehicle: water, evaluated on day 16): 95 % of control | T/C (T/C endpoint: median survival time, dose: 100.0 mg/kg/injection, schedule: Q01DX001 (ip), vehicle: water, evaluated on day 15): 100 % of control | T/C (T/C endpoint: median survival time, dose: 100.0 mg/kg/injection, schedule: Q01DX001 (ip), vehicle: water, evaluated on day 16): 100 % of control | T/C (T/C endpoint: median survival time, dose: 100.0 mg/kg/injection, schedule: Q01DX009 (ip), vehicle: water, evaluated on day 15): 100 % of control | T/C (T/C endpoint: median survival time, dose: 100.0 mg/kg/injection, schedule: Q01DX009 (ip), vehicle: water, evaluated on day 16): 95 % of control | T/C (T/C endpoint: median survival time, dose: 100.0 mg/kg/injection, schedule: Q04DX003 (ip), vehicle: water, evaluated on day 15): 100 % of control | T/C (T/C endpoint: median survival time, dose: 100.0 mg/kg/injection, schedule: Q04DX003 (ip), vehicle: water, evaluated on day 16): 90 % of control | T/C (T/C endpoint: median survival time, dose: 200.0 mg/kg/injection, schedule: Q01DX001 (ip), vehicle: water, evaluated on day 15): 100 % of control | T/C (T/C endpoint: median survival time, dose: 200.0 mg/kg/injection, schedule: Q01DX001 (ip), vehicle: water, evaluated on day 16): 100 % of control | T/C (T/C endpoint: median survival time, dose: 200.0 mg/kg/injection, schedule: Q01DX009 (ip), vehicle: water, evaluated on day 15): 100 % of control | T/C (T/C endpoint: median survival time, dose: 200.0 mg/kg/injection, schedule: Q01DX009 (ip), vehicle: water, evaluated on day 16): 90 % of control | T/C (T/C endpoint: median survival time, dose: 200.0 mg/kg/injection, schedule: Q04DX003 (ip), vehicle: water, evaluated on day 15): 100 % of control | T/C (T/C endpoint: median survival time, dose: 200.0 mg/kg/injection, schedule: Q04DX003 (ip), vehicle: water, evaluated on day 16): 90 % of control | T/C (T/C endpoint: median survival time, dose: 400.0 mg/kg/injection, schedule: Q01DX001 (ip), vehicle: water, evaluated on day 15): 100 % of control | T/C (T/C endpoint: median survival time, dose: 400.0 mg/kg/injection, schedule: Q01DX001 (ip), vehicle: water, evaluated on day 16): 100 % of control | T/C (T/C endpoint: median survival time, dose: 400.0 mg/kg/injection, schedule: Q01DX009 (ip), vehicle: water): 100 % of control | T/C (T/C endpoint: median survival time, dose: 400.0 mg/kg/injection, schedule: Q04DX003 (ip), vehicle: water, evaluated on day 15): 105 % of control | T/C (T/C endpoint: median survival time, dose: 400.0 mg/kg/injection, schedule: Q04DX003 (ip), vehicle: water, evaluated on day 16): 90 % of control | T/C (T/C endpoint: median survival time, dose: 800.0 mg/kg/injection, schedule: Q01DX001 (ip), vehicle: water): 100 % of control | T/C (T/C endpoint: median survival time, dose: 800.0 mg/kg/injection, schedule: Q01DX009 (ip), vehicle: water): 111 % of control | T/C (T/C endpoint: median survival time, dose: 800.0 mg/kg/injection, schedule: Q04DX003 (ip), vehicle: water): 111 % of control | T/C (T/C endpoint: median survival time, dose: 1600.0 mg/kg/injection, schedule: Q01DX001 (ip), vehicle: water): 100 % of control | T/C (T/C endpoint: median survival time, dose: 1600.0 mg/kg/injection, schedule: Q04DX003 (ip), vehicle: water): 111 % of control | T/C (T/C endpoint: median survival time, dose: 3200.0 mg/kg/injection, schedule: Q01DX001 (ip), vehicle: water): 111 % of control
